Experimental data as given in PubChem BioAssay AID493014 (National Center for Advancing Translational Sciences (NCATS), 2011).
Some of the results follow. These are further read-outs of the screen, such as a control signal, another cell line or another target. No call is given for them. Compounds called inactive in the main read-out are mostly missing here. Words in brackets tell the shape of the fitted curve; partial curves, single points and poor fits give uncertain potencies.

Assay: qHTS Assay to Find Inhibitors of Chronic Active B-Cell Receptor Signaling
Settings: ABC-DLBCL IkBa-CBG/CBR reporter, luminescence ratio (green luciferase fused to IkBa over red control in TMD8 lymphoma cells), 4 h
Text: NIH Molecular Libraries Probe Production Network [MLPCN] NIH Chemical Genomics Center [NCGC] MLPCN Grant: 1 R03 DA031086-01A1 PI Name: Dr. R. Eric Davis NCGC Assay Overview: Diffuse large B-cell lymphoma (DLBCL) is the most common category of non-Hodgkin lymphoma, with ~20,000 new cases per year in the United States. DLBCL should be regarded as a collection of different neoplasms. Microarray gene expression analysis has defined two principal types of DLBCL, named for their similarity to normal B cell stages or activation states: a germinal center B-cell (GCB) type, and an activated B-cell (ABC) type. In ABC-DLBCL, a constitutive high-level activity of the NF-kappaB family of transcription factors has been observed (1) and NF-kappaB target genes are more highly expressed in ABC primary tumors than in GCB tumors. Functional studies have shown a constitutive high-level activity of the IkappaB (inhibitor of kappa-B) kinase (IKK) complex. […] Further analysis of DLBCL primary tumors for NF-kappaB target gene expression imply that although CARD11 is required for constitutive IKK activity in all ABC-DLBCL lines, mutations in CARD11 may be the root cause of IKK activation only in lines or tumors with such mutations. In other words, CARD11 mutations may explain NF-kappaB activation in only 10% of ABC-DLBCL cases. […] This process has been termed 'chronic active BCR signaling' (CABS). The goal of this screen is to find small-molecule inhibitors of the CABS pathway found in ABC-DLBCL lines using a cell-based assay that measures IkappaBalpa stability, which has already been extensively validated in the OCI-Ly3 line (PubChem AID:445; REF: 4). […] The assay uses green (CBG68) and red (CBR) emitting beetle luciferases [Chroma-GloTM developed by Promega Corp.] where the green luciferase is fused to IkappaBalpha and the red luciferase is present in its native state. Both luciferase genes are stably present in the TMD8 human ABC DLBCL cell line, but their expression is under the control of tetracycline-inducible promoters. Following the addition of doxycycline to induce expression of the luciferases, the green luminescence in control cultures rises only slowly because the CBG fusion partner IkappaBalpha is targeted by IKK activity for rapid degradation. In contrast, green luminescence rises rapidly in the presence of proteasome inhibitors or IKK inhibitors. The rise in red luminescence of CBR is not affected by proteasome or IKK inhibitors, and serves as normalization for cell number and nonspecific effects. Compounds were screened as a concentration-titration series that ranged from 46 uM to 3 nM.
NCGC Assay Protocol Summary: Cells were seeded in 1536-well plates at 5000 cells/4uL in IMDM medium containing 0.5% FBS, w/o phenol red, 1% penicillin/streptomycin. Then, 23 nL of compounds or DMSO were delivered to each well using a pin tool. One uL 20ng/ml doxycycline was then dispensed into white solid 1536-well plates and the plates were incubated at 37C/5% C02 in a cell incubator for 4 hrs. Then 4 uL luminescent substrate mix (in-house prepared: 150 mM Tris-Cl, pH 7.6, 3 mM MgCl2, 1% Triton X-100, 5 mM DTT, 0.2 mM CoA, 0.15 mM ATP, 5 mM D-luciferin, final concentrations) was added to each well. The plate was incubated at r.t. for 10-15 min. The plates were measured on a ViewLux plate reader for green luminescence (540/20 nm filter) and red luminescence (618/8 nm filter). The green and red luminescent signals were corrected for red and green luminescence filter overlap using previously determined filter calibration constants (determined using the procedure outlined in the Promega Technical Manual; REF 4). The %Activity was determined from the ratio of corrected green/red luminescent values. MG132 were used as control. […] Red luminescent %Activity was normalized to the difference between red luminesence in basal cells (0%Activity) and zero luminescence (-100% Activity). […]

[1] = measured here: CBR red luminescence, cell number
[2] = measured here: IkBa-CBG green luminescence

SMILES | AC50 [1] | AC50 [2]
COc1ccc(-c2cn(CCC(=O)O)c(C)n2)cc1 | 14.6 µM [falling, partial curve, poor fit] | –
Cn1cc(Cl)c(-c2nc3ccccc3[nH]2)n1 | 25.9 µM [falling, partial curve] | –
CCOC(=O)C(C)Sc1ccc2nnc(-c3ccc(F)cc3)n2n1 (configuration not stated) | 2.24 µM [falling, full curve, poor fit] | –
CCn1cc(/C=C/C(=O)Nc2ccn(Cc3c(F)c(F)cc(F)c3F)n2)cn1 | 13 µM [falling, partial curve, poor fit] | –
CCOC(=O)Cc1csc(NC(=O)COc2ccc(OC)cc2)n1 | 32.6 µM [falling, single point] | –
O=C(N/N=C/c1ccc(OC(=O)c2ccccc2)c([N+](=O)[O-])c1)c1ccc(O)cc1 | 1.16 µM [falling, full curve] | –
COc1cc(/C=C2\SC(N3CCCCC3)=NC2=O)cc(OC)c1OC | 35.5 µM [falling, single point] | –
Clc1ccc(N/N=C/c2cccnc2)cc1 | 0.259 µM [rising, full curve, poor fit] | –
COc1ccccc1/C=N/NS(=O)(=O)c1ccccc1 | 25.1 µM [falling, single point] | –
CCC(C(=O)OC(C)C)c1ccc2ccccc2c1 (configuration not stated) | 14.6 µM [rising, partial curve, poor fit] | –
CC(=O)Nc1ccc(S(=O)(=O)N2CCC(NC(C)=O)(c3cccc(F)c3)CC2)cc1 | 17.8 µM [rising, partial curve, poor fit] | –
O=C(COC(=O)C1=Cc2ccccc2OC1)NCc1ccco1 | 11.2 µM [rising, partial curve, poor fit] | –
CCS(=O)(=O)Nc1cccc(C2=NN(S(=O)(=O)c3ccccc3)C(c3ccco3)C2)c1 (configuration not stated) | 35.5 µM [falling, partial curve, poor fit] | –
O=c1oc2cc(Cl)ccc2n1CSc1nc2ccccc2s1 | 2.06 µM [rising, full curve, poor fit] | –
O=C(Sc1cccc2cccnc12)c1ccc(F)cc1 | 5.01 µM [falling, single point] | –
COC(=O)c1c(C)oc2ccc(N(C(=O)c3ccncc3)S(=O)(=O)c3ccc(C)cc3C)cc12 | 18.4 µM [falling, partial curve, poor fit] | –
O=C(O)c1cccc(COc2ccccc2Cl)c1 | – | 2.91 µM [rising, full curve, poor fit]
N#C/C(=C\c1ccncc1)c1nc2ccccc2o1 | 11.2 µM [falling, partial curve, poor fit] | –
O=C(Nc1ccc(Cl)cc1)Nc1nnc(CSCc2ccc(Cl)cc2)s1 | 25.9 µM [rising, single point] | –
COc1ccc(NC(C)=O)cc1NC(C)C(=O)Nc1cccc(S(=O)(=O)N2CCOCC2)c1 (configuration not stated) | 14.6 µM [rising, partial curve, poor fit] | –
CC(=O)N1CCOc2cc(S(=O)(=O)Nc3cccc(C(F)(F)F)c3)c(Cl)cc21 | 23.1 µM [falling, single point] | –
O=C(/C=C/c1c(Cl)cccc1Cl)NCc1ccco1 | 20.6 µM [rising, partial curve, poor fit] | –

SMILES | AC50 [1] | AC50 [2]
N#Cc1ccc(COC(=O)c2ccc(N3CCCC3)c([N+](=O)[O-])c2)cc1 | 18.4 µM [rising, single point] | –
CCCCC(OC(=O)CN1C(=O)COc2ccccc21)C(=O)NC1CCCCC1 (configuration not stated) | 1 µM [rising, full curve, poor fit] | –
O=C(NCC1CCCCC1)c1ccc(F)cc1Cl | 15.8 µM [rising, partial curve, poor fit] | –
Cc1cc(Nc2cccc([N+](=O)[O-])c2)n2c(nc3ccccc32)c1C#N | 0.731 µM [rising, partial curve, poor fit] | –
O=C(NCCCn1ccnc1)Nc1ccc(Cl)cc1 | 1.12 µM [rising, partial curve, poor fit] | –
Nc1ccc2nn(-c3ccccc3)nc2c1 | 2.51 µM [rising, partial curve] | –
C/C(=N\NC(=O)c1cccc(Br)c1)c1cccnc1 | 10 µM [falling, partial curve, poor fit] | –
COc1ccc(C(C)(C)C)cc1NC(=O)c1ccc2c(c1)SC1=NS(=O)(=O)CCN12 | 35.5 µM [falling, single point] | –
Cc1cc(Nc2cccc(Cl)c2C)n2ncnc2n1 | 29.1 µM [rising, single point] | –
Cc1cccc(N2CCN(C(=O)c3cc(S(=O)(=O)N4CCOCC4)cn3C)CC2)c1C | 11.2 µM [falling, partial curve, poor fit] | –
COc1cc(/C=N/NC(=O)c2cc(-c3ccccc3)nc3ccccc23)ccc1O | 35.5 µM [rising, single point] | –
COC(=O)CNC(=O)C1CCN(S(=O)(=O)c2cnc[nH]2)CC1 | 35.5 µM [rising, partial curve, poor fit] | –
COc1ccc(NC(=O)CN2C(=O)NC3(CCCC3)C2=O)cc1Cl | 35.5 µM [rising, partial curve, poor fit] | –
CCCC(=O)Nc1c(C)n[nH]c1C | 1.26 µM [falling, partial curve, poor fit] | –
O=C(Nc1c(F)cccc1F)c1cnc(N2CCN(c3ccccn3)CC2)c2ccccc12 | 16.4 µM [falling, single point] | –
CCOC(=O)c1ccc(N=Cc2c(O)c3ccccc3oc2=O)cc1 | 2.51 µM [falling, full curve] | –
COc1ccc(-c2cc(-c3ccccc3)no2)cc1 | 5.17 µM [falling, full curve] | –
O=C(CNC(=S)NC(=O)c1cccc([N+](=O)[O-])c1)c1ccccc1 | 18.4 µM [rising, single point] | –
Nc1nc2c(-c3ccc(Br)cc3)nnn2c2ccccc12 | 17.8 µM [rising, single point] | –
O=c1[nH]nc(SCc2ccccc2Cl)n1-c1ccc2c(c1)OCCO2 | 15.8 µM [rising, partial curve, poor fit] | –
O=C(O)CCn1nnc(-c2cccs2)n1 | 31.6 µM [rising, partial curve, poor fit] | –
Cc1ccc(N/C(N)=N/c2nc3c(c(=O)[nH]2)CCCC3)c(C)c1 | 15.8 µM [falling, single point] | –

Fetched by structure from above (2):
SMILES | AC50 [1] | AC50 [2]
Cc1ccc(N/C(N)=N/c2nc3c(c(=O)[nH]2)CCCC3)c(C)c1 | 15.8 µM [falling, single point] | –
COc1ccc(NC(=O)CN2C(=O)NC3(CCCC3)C2=O)cc1Cl | 35.5 µM [rising, partial curve, poor fit] | –

(cont.)

SMILES | AC50 [1] | AC50 [2]
S=c1c2c(nc3nc[nH]n13)CCC2 | 10 µM [rising, partial curve, poor fit] | 3.16 µM [falling, partial curve, poor fit]
Oc1ccc(NCc2cccc(OCc3ccccc3)c2)cc1 | – | 25.1 µM [falling, partial curve, poor fit]
CCOC(=O)c1nnn2c1nc(SCC(C)=O)c1ccccc12 | 3.98 µM [falling, full curve] | –
Cn1cc([N+](=O)[O-])c(C(=O)Nc2ccc3nc(-c4ccccc4)[nH]c3c2)n1 | 9.2 µM [falling, partial curve] | –
COc1ccc(C(=O)NCCC2=CCCCC2)cc1OC | 29.1 µM [falling, single point] | –
CSc1ccc(C2=CC(=O)C[C@H](c3ccc(Cl)cc3)C2)cc1 | 1.84 µM [rising, full curve] | –
C/C=C/Cn1c(Br)nc2c1c(=O)n(C)c(=O)n2C | 1.84 µM [falling, partial curve, poor fit] | –
O=C(NCc1ccco1)c1ccc(-c2cccc(Cl)c2)o1 | 0.562 µM [rising, full curve, poor fit] | –
CC(C)CCN1CC(=O)N2[C@@H](Cc3c([nH]c4ccccc34)C2(C)C)C1=O | 10 µM [rising, partial curve, poor fit] | –
Clc1ccccc1-c1cc(COc2ccc3ccccc3c2)no1 | 20.6 µM [rising, partial curve, poor fit] | –
COc1ccc(NC(=O)CSc2nnc(C3CCCCC3)n2N)c(OC)c1 | 7.94 µM [falling, partial curve, poor fit] | –
CCN(CC)S(=O)(=O)c1ccc(N2CCCCC2)c(NC(=O)/C=C/c2ccc(OC)c(OC)c2)c1 | 3.66 µM [rising, full curve, poor fit] | –
CCOC(=O)c1c(C)[nH]c(C(=O)N/N=C\c2ccccc2Cl)c1C | 20.6 µM [rising, single point] | 18.4 µM [falling, single point]
Cc1ccc2c(C(=O)CSc3ccccc3)c(C)[nH]c2c1 | 0.461 µM [rising, full curve, poor fit] | –
Cc1nc(-c2ccccc2)sc1C(=O)CSc1ccc(Cl)cc1 | 0.00366 µM [rising, full curve, poor fit] | 3.26 µM [rising, partial curve, poor fit]
CCn1ccnc1CNC(=O)c1ccc2oc(CCCc3ccccc3)nc2c1 | 3.16 µM [rising, partial curve] | –
COc1cccc(-n2c(=O)c3sccc3n(CC(=O)NCC3CCCO3)c2=O)c1 (configuration not stated) | 5.62 µM [rising, single point] | –
COc1ccc(Nc2nc(NCc3ccco3)nc(N/N=C/c3ccc(O)cc3)n2)cc1 | 8.2 µM [falling, partial curve] | –
CCOC(=O)Cc1csc(NC(=O)c2ccoc2C)n1 | 16.4 µM [falling, partial curve, poor fit] | –
N=C1/C(=C/c2ccc(OCc3ccccc3)cc2)C(=O)N=C2SC(CC(=O)N3CCOCC3)=NN12 | 10 µM [rising, partial curve, poor fit] | –

Three compounds already listed, sorted by count of non-hydrogen atoms, ascending:
SMILES | AC50 [1] | AC50 [2]
CCOC(=O)c1c(C)[nH]c(C(=O)N/N=C\c2ccccc2Cl)c1C | 20.6 µM [rising, single point] | 18.4 µM [falling, single point]
Cn1cc([N+](=O)[O-])c(C(=O)Nc2ccc3nc(-c4ccccc4)[nH]c3c2)n1 | 9.2 µM [falling, partial curve] | –
N=C1/C(=C/c2ccc(OCc3ccccc3)cc2)C(=O)N=C2SC(CC(=O)N3CCOCC3)=NN12 | 10 µM [rising, partial curve, poor fit] | –
